# Results from patent US7169756B2 (priority 2005, dated 2007).
# Some peptides are written in HELM: one residue between dots, names in brackets for other building blocks, links after the first $.
# Experiment: general procedure: Fmoc solid-phase peptide synthesis; sulfamylbutyryl resin; PyBop/1-hydroxybenzotriazole/diisopropylethylamine
# Conditions: whole synthesis, overall, scale 1 g resin
substance,measurement,value
"PEPTIDE1{[3Hpa].[Dap].T.[Orn].L.[dF].P.F}$PEPTIDE1,PEPTIDE1,2:R3-8:R2$$$V2.0",isolated mass,10 mg
same,isolated yield,1.3%
